The other results are listed elsewhere or left out.
Columns and labels:
Experiment in all cases: log2 fold change, soluble protein after heating vs DMSO (PISA); higher = thermal stabilisation; K562 lysate, 10 uM; active = over 0.2 and 3.5 SD of the protein, either way, in both replicates (recomputed)
alvocidib = compound: CN1CC[C@H](c2c(O)cc(O)c3c(=O)cc(-c4ccccc4Cl)oc23)[C@H](O)C1 [alvocidib]
Outline: (§1)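 Quantification was by TMTpro 16plex LC-MS/MS with equalised channel sums, applied to the supernatant after 21,000xg for 90 min. Samples were crude K562 extract at 1 mg/mL protein in PBS pH 7.4 with 1 mM MgCl2, treated with 10 μM compound for 30 min, heated for 3 min across 48°C-58°C, pooled and brought to 0.5% NP-40 at 4°C. Values are log-two fold changes in thermal stability relative to solvent controls, from duplicates.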

Sequences of proteins named here, by UniProt entry; tags and fusion partners are left off. A change or cut given only in a name is not applied to a line headed by its entry.
UniProt Q86U06: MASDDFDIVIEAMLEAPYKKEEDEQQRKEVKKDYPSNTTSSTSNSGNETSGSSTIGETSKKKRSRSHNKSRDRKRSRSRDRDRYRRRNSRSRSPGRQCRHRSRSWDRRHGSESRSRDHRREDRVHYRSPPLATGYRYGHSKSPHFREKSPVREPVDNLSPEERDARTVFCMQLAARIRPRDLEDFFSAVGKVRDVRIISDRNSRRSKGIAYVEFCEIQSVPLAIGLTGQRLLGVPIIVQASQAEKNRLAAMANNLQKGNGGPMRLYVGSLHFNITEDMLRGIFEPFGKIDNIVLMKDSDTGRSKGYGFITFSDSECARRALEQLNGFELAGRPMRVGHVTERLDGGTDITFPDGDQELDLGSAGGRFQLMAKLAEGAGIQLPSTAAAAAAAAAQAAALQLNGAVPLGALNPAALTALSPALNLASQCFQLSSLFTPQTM
UniProt P35249, whole entry, looked up: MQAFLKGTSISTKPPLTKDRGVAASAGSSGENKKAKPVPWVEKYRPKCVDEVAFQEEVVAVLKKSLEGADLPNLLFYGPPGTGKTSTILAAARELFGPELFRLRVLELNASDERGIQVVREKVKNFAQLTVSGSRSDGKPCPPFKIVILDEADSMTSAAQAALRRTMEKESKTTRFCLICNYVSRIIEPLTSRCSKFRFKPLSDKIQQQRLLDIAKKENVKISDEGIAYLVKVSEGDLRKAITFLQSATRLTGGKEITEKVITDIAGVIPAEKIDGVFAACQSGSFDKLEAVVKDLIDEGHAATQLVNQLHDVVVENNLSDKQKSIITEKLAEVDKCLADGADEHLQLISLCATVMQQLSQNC
UniProt Q02094: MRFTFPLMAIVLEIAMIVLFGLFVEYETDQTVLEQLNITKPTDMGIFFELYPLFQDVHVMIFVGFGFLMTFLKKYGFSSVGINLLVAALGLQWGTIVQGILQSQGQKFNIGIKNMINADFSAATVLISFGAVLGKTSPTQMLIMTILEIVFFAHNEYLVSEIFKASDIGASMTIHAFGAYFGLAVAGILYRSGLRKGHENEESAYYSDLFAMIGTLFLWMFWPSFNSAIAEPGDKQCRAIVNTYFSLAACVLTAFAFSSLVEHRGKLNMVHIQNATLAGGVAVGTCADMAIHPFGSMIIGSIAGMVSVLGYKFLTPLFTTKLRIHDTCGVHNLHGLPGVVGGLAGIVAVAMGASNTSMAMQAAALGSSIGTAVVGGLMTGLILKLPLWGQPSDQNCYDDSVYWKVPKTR
UniProt Q8IZV5: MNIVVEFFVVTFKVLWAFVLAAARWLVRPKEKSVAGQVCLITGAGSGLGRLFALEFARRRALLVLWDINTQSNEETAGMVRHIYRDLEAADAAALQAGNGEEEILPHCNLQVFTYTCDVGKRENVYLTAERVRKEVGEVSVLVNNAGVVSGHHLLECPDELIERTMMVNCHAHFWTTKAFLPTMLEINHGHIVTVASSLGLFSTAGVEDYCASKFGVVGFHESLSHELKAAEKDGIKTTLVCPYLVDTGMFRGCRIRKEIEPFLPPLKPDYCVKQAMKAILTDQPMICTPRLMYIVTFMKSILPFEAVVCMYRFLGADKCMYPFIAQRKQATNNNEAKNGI
UniProt P53805: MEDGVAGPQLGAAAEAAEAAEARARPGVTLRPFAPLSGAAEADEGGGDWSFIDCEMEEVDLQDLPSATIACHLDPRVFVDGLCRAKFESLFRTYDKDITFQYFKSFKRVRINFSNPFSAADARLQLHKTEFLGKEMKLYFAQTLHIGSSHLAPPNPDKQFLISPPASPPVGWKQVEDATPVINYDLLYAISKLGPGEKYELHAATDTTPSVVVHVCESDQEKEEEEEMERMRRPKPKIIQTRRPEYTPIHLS
UniProt Q96I51, whole entry, looked up: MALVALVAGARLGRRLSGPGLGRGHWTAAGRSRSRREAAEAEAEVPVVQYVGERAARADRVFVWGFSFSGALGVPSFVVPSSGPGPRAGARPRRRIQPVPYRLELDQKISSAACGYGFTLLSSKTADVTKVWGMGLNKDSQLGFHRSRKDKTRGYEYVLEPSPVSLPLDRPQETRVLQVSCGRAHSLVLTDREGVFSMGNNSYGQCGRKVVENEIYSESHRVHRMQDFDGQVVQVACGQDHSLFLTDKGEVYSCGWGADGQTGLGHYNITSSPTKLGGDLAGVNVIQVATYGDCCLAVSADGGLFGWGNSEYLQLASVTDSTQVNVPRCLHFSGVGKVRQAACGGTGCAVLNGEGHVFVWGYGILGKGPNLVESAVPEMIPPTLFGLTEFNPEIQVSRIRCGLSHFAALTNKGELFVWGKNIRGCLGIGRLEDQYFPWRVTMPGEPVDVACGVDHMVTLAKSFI
UniProt Q8N5W9: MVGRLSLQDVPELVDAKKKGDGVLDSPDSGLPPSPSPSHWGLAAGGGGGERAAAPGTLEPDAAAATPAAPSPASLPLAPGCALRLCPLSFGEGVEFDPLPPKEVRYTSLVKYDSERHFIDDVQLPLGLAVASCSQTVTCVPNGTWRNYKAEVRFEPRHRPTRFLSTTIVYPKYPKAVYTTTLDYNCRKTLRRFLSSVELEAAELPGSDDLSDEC
UniProt Q8NBN7: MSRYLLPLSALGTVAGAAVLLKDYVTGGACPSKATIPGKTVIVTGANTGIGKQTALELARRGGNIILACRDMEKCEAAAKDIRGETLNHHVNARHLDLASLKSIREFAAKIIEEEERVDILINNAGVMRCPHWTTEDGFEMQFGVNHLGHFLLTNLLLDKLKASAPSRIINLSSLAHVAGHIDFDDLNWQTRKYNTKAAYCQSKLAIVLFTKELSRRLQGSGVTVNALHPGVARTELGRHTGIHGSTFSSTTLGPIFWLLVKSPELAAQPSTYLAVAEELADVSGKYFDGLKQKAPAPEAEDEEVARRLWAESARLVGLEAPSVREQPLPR
UniProt Q92546: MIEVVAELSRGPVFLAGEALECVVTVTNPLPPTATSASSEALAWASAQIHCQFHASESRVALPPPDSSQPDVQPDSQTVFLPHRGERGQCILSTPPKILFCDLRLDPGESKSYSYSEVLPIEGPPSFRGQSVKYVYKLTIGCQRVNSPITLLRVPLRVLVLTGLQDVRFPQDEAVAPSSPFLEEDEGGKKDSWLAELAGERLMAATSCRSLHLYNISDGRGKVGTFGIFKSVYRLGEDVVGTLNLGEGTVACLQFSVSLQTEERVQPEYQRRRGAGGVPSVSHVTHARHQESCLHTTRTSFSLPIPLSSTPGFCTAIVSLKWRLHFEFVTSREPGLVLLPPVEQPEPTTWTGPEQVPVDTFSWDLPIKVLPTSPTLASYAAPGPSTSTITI
UniProt Q9BWF3: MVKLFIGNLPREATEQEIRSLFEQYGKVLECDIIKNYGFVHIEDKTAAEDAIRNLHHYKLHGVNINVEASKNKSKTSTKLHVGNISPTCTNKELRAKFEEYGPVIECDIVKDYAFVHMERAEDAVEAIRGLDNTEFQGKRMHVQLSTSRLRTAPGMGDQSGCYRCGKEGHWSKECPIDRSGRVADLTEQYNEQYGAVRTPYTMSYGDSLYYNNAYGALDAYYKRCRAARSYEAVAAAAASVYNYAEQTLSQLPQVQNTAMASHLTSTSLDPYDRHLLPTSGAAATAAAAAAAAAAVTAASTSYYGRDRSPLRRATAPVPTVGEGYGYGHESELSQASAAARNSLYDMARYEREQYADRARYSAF
UniProt Q9H6H4: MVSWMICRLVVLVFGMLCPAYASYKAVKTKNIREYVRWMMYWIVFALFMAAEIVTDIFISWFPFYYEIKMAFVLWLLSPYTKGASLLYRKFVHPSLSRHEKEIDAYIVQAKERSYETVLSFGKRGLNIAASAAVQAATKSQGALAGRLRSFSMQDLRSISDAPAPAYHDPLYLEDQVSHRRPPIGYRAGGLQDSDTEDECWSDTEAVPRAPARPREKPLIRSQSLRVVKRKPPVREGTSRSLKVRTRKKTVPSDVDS
UniProt P20936: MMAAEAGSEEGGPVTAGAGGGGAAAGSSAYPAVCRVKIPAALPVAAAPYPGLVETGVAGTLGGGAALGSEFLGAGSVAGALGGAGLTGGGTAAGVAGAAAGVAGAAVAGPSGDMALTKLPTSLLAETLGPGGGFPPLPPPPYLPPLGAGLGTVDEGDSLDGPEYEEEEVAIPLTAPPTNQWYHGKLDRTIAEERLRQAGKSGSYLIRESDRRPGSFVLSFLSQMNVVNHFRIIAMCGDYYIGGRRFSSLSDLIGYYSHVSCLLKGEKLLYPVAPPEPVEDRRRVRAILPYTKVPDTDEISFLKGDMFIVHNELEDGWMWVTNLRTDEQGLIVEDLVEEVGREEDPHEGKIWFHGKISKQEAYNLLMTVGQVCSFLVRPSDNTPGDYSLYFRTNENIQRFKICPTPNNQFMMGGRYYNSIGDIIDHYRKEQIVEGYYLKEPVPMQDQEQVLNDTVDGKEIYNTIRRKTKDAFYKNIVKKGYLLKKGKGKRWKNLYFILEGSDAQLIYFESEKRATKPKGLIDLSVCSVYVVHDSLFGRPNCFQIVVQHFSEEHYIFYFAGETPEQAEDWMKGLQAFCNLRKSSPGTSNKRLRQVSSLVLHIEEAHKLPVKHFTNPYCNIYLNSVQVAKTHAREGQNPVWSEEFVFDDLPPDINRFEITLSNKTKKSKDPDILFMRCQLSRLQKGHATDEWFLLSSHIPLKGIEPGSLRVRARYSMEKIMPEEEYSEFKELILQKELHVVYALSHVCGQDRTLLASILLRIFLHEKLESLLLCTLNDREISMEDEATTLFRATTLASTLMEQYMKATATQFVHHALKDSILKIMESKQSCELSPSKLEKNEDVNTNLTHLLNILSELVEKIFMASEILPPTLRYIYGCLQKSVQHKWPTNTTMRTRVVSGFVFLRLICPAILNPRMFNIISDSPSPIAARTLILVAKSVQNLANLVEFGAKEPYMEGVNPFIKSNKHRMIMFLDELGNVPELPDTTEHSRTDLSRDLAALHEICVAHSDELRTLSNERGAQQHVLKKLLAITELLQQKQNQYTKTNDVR
UniProt Q8TDY2, whole entry, looked up: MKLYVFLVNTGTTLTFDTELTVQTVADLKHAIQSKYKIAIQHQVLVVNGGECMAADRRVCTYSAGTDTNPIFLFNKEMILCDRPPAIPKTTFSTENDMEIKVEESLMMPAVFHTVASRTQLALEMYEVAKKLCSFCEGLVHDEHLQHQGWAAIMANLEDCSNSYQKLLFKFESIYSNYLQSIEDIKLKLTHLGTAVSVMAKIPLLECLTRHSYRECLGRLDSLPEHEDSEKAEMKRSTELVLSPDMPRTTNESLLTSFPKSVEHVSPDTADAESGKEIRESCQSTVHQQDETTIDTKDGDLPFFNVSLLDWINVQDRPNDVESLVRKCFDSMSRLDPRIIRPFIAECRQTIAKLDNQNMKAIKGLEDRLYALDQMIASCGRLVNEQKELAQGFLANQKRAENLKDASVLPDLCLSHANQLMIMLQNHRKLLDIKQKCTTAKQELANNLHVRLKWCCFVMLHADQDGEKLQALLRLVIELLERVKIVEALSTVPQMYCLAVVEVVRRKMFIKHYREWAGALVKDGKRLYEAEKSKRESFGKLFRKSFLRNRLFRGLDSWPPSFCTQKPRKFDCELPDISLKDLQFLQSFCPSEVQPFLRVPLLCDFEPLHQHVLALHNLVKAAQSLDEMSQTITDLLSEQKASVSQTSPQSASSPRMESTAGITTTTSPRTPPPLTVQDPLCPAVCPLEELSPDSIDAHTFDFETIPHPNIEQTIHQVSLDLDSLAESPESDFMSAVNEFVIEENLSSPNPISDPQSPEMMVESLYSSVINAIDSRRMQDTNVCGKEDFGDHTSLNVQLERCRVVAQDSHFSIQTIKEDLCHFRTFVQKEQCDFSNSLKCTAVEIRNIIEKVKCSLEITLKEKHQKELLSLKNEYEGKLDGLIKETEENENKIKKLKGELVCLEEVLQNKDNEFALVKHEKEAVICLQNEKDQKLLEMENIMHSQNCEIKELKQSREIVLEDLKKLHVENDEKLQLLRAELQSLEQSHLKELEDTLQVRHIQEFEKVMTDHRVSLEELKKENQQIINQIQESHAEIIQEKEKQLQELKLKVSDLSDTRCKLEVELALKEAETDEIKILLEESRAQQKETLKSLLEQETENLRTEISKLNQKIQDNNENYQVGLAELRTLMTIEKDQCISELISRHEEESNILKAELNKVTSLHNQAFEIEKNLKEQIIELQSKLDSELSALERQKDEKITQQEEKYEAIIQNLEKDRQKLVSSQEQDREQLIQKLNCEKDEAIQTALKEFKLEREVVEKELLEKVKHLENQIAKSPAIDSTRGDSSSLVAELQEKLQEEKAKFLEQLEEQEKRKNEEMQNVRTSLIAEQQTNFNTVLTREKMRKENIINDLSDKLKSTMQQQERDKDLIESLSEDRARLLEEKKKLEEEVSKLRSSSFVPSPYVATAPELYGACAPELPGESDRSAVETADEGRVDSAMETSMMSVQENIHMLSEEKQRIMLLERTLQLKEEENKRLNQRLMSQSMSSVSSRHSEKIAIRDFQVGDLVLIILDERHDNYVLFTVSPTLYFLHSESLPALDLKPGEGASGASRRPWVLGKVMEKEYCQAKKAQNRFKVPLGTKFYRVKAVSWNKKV

Tubastatin A = compound: CN1CCc2c(c3ccccc3n2Cc2ccc(C(=O)NO)cc2)C1 [Tubastatin A]
Outline: as §1

[1] = compound: CNC(=O)C1=CC=CC=C1NC2=NC(=NC=C2Cl)NC3=C(C=C(C=C3)N4CCOCC4)OC
Outline: as §1

defactinib = compound: CNC(=O)c1ccc(Nc2ncc(C(F)(F)F)c(NCc3nccnc3N(C)S(C)(=O)=O)n2)cc1 [defactinib]
Outline: as §1

[2] = compound: CNc1nc(-c2ccc3c(N)n[nH]c3c2)cc(N2C[C@@H](C(=O)NC3CCCCC3)CC[C@H]2C)n1
Outline: as §1

encorafenib = compound: COC(=O)N[C@@H](C)CNc1nccc(-c2cn(C(C)C)nc2-c2cc(Cl)cc(NS(C)(=O)=O)c2F)n1 [encorafenib]
Outline: as §1

[3] = compound: COC(=O)[C@H](CCSC)NC(=O)C1=C(C=C(C=C1)NC[C@H](CS)N)C2=CC=CC=C2
Outline: as §1

alisertib = compound: COc1cc(Nc2ncc3c(n2)-c2ccc(Cl)cc2C(c2c(F)cccc2OC)=NC3)ccc1C(=O)O [alisertib]
Outline: as §1

[4] = compound: COc1cc2nc(-c3cc(F)ccc3O)nc(N[C@@H]3CNC[C@H]3C(C)(C)O)c2cc1OC
Outline: as §1

gefitinib = compound: COc1cc2ncnc(Nc3ccc(F)c(Cl)c3)c2cc1OCCCN1CCOCC1 [gefitinib]
Outline: as §1

lapatinib = compound: CS(=O)(=O)CCNCc1ccc(-c2ccc3ncnc(Nc4ccc(OCc5cccc(F)c5)c(Cl)c4)c3c2)o1 [lapatinib]
Outline: as §1

pictilisib = compound: CS(=O)(=O)N1CCN(Cc2cc3nc(-c4cccc5[nH]ncc45)nc(N4CCOCC4)c3s2)CC1 [pictilisib]
Outline: as §1

crizotinib = compound: C[C@@H](Oc1cc(-c2cnn(C3CCNCC3)c2)cnc1N)c1c(Cl)ccc(F)c1Cl [crizotinib]
Outline: as §1

[5] = compound: C[C@H](C1=CC=C(C=C1)C(=O)NC2=C3C=CNC3=NC=C2)N
Outline: as §1

duvelisib = compound: C[C@H](Nc1ncnc2nc[nH]c12)c1cc2cccc(Cl)c2c(=O)n1-c1ccccc1 [duvelisib]
Outline: as §1

gandotinib = compound: Cc1cc(Nc2cc(CN3CCOCC3)c3nc(C)c(Cc4ccc(Cl)cc4F)n3n2)n[nH]1 [gandotinib]
Outline: as §1

tozasertib = compound: Cc1cc(Nc2cc(N3CCN(C)CC3)nc(Sc3ccc(NC(=O)C4CC4)cc3)n2)n[nH]1 [tozasertib]
Outline: as §1

doramapimod = compound: Cc1ccc(-n2nc(C(C)(C)C)cc2NC(=O)Nc2ccc(OCCN3CCOCC3)c3ccccc23)cc1 [doramapimod]
Outline: as §1

bafetinib = compound: Cc1ccc(NC(=O)c2ccc(CN3CC[C@H](N(C)C)C3)c(C(F)(F)F)c2)cc1Nc1nccc(-c2cncnc2)n1 [bafetinib]
Outline: as §1

[6] = compound: Cc1cccc(CC(=O)N2CCc3c2ccc(-c2cn(C)c4ncnc(N)c24)c3F)n1
Outline: as §1

Row | Target | log2 fold change (alvocidib) | log2 fold change (Tubastatin A) | log2 fold change [1] | log2 fold change (defactinib) | log2 fold change [2] | log2 fold change (encorafenib) | log2 fold change [3] | log2 fold change (alisertib) | log2 fold change [4] | log2 fold change (gefitinib) | log2 fold change (lapatinib) | log2 fold change (pictilisib) | log2 fold change (crizotinib) | log2 fold change [5] | log2 fold change (duvelisib) | log2 fold change (gandotinib) | log2 fold change (tozasertib) | log2 fold change (doramapimod) | log2 fold change (bafetinib) | log2 fold change [6]
1 | RBM23 isoform 2 (UniProt Q86U06) | inactive: -0.056 | inactive: -0.084 | inactive: 0.133 | inactive: -0.037 | inactive: 0.181 | inactive: 0.335 | inactive: -0.003 | inactive: 0.11 | inactive: 0.137 | inactive: 0.057 | inactive: 0.056 | inactive: -0.053 | inactive: -0.076 | inactive: 0.044 | inactive: -0.008 | inactive: 0.272 | inactive: 0.053 | active: 0.489 | inactive: -0.114 | inactive: 0.083
2 | RFC4 (UniProt P35249) | inactive: -0.018 | inactive: -0.119 | inactive: 0.018 | inactive: 0.009 | inactive: -0.043 | inactive: 0.018 | inactive: 0.088 | inactive: 0.022 | inactive: 0.003 | inactive: -0.006 | inactive: -0.01 | inactive: -0.004 | inactive: -0.027 | inactive: -0.065 | inactive: 0.01 | inactive: -0.028 | inactive: -0.027 | inactive: 0.035 | inactive: -0.018 | inactive: 0.041
3 | RHAG (UniProt Q02094) | inactive: -0.133 | inactive: 0.031 | inactive: 0.043 | inactive: -0.043 | inactive: 0.037 | inactive: 0.016 | inactive: 0.02 | inactive: -0.004 | inactive: 0.046 | inactive: -0.051 | inactive: -0.046 | inactive: -0.002 | inactive: -0.038 | active: -0.381 | inactive: 0.113 | inactive: 0.07 | inactive: 0.05 | inactive: 0.032 | inactive: 0.004 | inactive: 0.184
4 | RDH10 (UniProt Q8IZV5) | inactive: -0.013 | inactive: 0.015 | inactive: 0.069 | inactive: 0.009 | inactive: -0.013 | inactive: -0.001 | active: 0.346 | inactive: 0.037 | inactive: 0.007 | inactive: -0.004 | inactive: 0.004 | inactive: -0.035 | inactive: 0.062 | inactive: -0.039 | inactive: 0.022 | inactive: 0.055 | inactive: -0.032 | inactive: -0.012 | inactive: 0.001 | inactive: 0.043
5 | RCAN1 (UniProt P53805) | inactive: -0.003 | inactive: -0.118 | inactive: 0.052 | inactive: 0.006 | inactive: 0.079 | inactive: 0.065 | inactive: 0.035 | inactive: -0.02 | inactive: 0.019 | inactive: -0.038 | inactive: -0.017 | inactive: -0.048 | inactive: -0.127 | inactive: -0.088 | inactive: -0.012 | inactive: 0.041 | inactive: 0.017 | inactive: -0.039 | inactive: 0.123 | inactive: -0.03
6 | RCC1L (UniProt Q96I51) | inactive: -0.044 | inactive: 0.003 | inactive: 0.009 | inactive: 0.037 | inactive: 0.002 | inactive: -0.008 | inactive: -0.013 | inactive: -0.031 | inactive: -0.02 | inactive: 0.035 | inactive: 0.052 | inactive: -0.058 | inactive: 0.035 | inactive: -0.025 | inactive: -0.022 | inactive: -0.082 | inactive: -0.022 | inactive: -0.026 | inactive: 0.031 | inactive: 0.033
7 | REPIN1 isoform 4 (UniProt Q9BWE0) | inactive: 0.051 | inactive: 0.086 | inactive: -0.053 | inactive: 0.011 | inactive: 0.024 | inactive: 0.02 | inactive: -0.024 | inactive: 0.04 | inactive: 0.021 | inactive: -0.013 | inactive: -0.004 | inactive: -0.011 | inactive: 0.051 | inactive: -0.034 | inactive: -0.064 | inactive: -0.006 | inactive: -0.041 | inactive: -0.065 | inactive: -0.038 | inactive: 0.051
8 | RFLNB (UniProt Q8N5W9) | inactive: 0.015 | inactive: 0.032 | inactive: 0.237 | inactive: -0.096 | inactive: 0.12 | inactive: 0.011 | inactive: -0.021 | inactive: -0.114 | inactive: 0.001 | inactive: -0.131 | inactive: 0.111 | inactive: -0.095 | inactive: -0.043 | inactive: 0.05 | inactive: -0.046 | inactive: -0.055 | inactive: 0.005 | inactive: 0.045 | inactive: 0.082 | inactive: -0.083
9 | RDH13 (UniProt Q8NBN7) | inactive: 0.018 | inactive: -0.162 | inactive: -0.001 | inactive: 0.1 | inactive: 0.051 | inactive: -0.115 | inactive: -0.068 | inactive: 0.011 | inactive: -0.076 | inactive: -0.015 | inactive: -0.025 | inactive: -0.015 | inactive: -0.039 | inactive: -0.019 | inactive: 0.038 | inactive: -0.11 | inactive: 0.073 | inactive: -0.019 | inactive: -0.073 | inactive: 0.047
10 | RGP1 (UniProt Q92546) | inactive: -0.152 | inactive: -0.17 | inactive: -0.025 | inactive: -0.135 | inactive: -0.088 | inactive: 0.094 | inactive: -0.083 | inactive: -0.008 | inactive: 0.087 | inactive: -0.083 | inactive: -0.062 | inactive: -0.089 | inactive: -0.133 | inactive: -0.074 | inactive: 0.038 | inactive: 0.072 | inactive: -0.037 | inactive: 0.015 | inactive: 0.136 | inactive: 0.329
11 | RBM4 (UniProt Q9BWF3) | inactive: 0.16 | inactive: -0.168 | inactive: 0.013 | inactive: -0.011 | inactive: -0.088 | inactive: 0.089 | inactive: -0.066 | inactive: 0.037 | inactive: 0.006 | inactive: -0.004 | inactive: -0.015 | inactive: -0.01 | inactive: 0.018 | inactive: 0.183 | inactive: -0.003 | inactive: -0.097 | inactive: 0.075 | inactive: -0.109 | inactive: -0.02 | inactive: -0.069
12 | REV1 (UniProt Q9UBZ9) | inactive: 0.122 | inactive: -0.061 | inactive: -0.021 | inactive: -0.001 | inactive: -0.147 | inactive: -0.094 | inactive: -0.044 | inactive: 0.05 | inactive: -0.061 | inactive: -0.01 | inactive: -0.05 | inactive: 0.001 | inactive: 0.108 | inactive: 0.05 | inactive: -0.043 | inactive: -0.133 | inactive: -0.023 | inactive: 0.003 | inactive: 0.04 | inactive: -0.165
13 | REEP4 (UniProt Q9H6H4) | inactive: 0.044 | inactive: -0.068 | inactive: -0.047 | inactive: 0.01 | inactive: -0.025 | inactive: 0.01 | inactive: -0.049 | inactive: -0.018 | inactive: 0.006 | inactive: -0.043 | inactive: 0.013 | inactive: -0.081 | inactive: -0.036 | inactive: -0.007 | inactive: -0.011 | inactive: -0.119 | inactive: -0.016 | inactive: 0.014 | inactive: 0.082 | inactive: 0.049
14 | RASA1 (UniProt P20936) | inactive: -0.018 | inactive: -0.029 | inactive: 0.053 | inactive: 0.005 | inactive: -0.046 | inactive: 0.033 | inactive: 0.006 | inactive: -0.026 | inactive: 0 | inactive: 0.012 | inactive: -0.005 | inactive: -0.057 | inactive: -0.004 | inactive: 0.01 | inactive: -0.05 | inactive: -0.044 | inactive: 0.013 | inactive: -0.013 | inactive: -0.016 | inactive: -0.001
15 | RB1CC1 (UniProt Q8TDY2) | inactive: -0.02 | inactive: -0.006 | inactive: 0.031 | inactive: -0.033 | inactive: 0.026 | inactive: -0.012 | inactive: -0.031 | inactive: -0.015 | inactive: 0.018 | inactive: -0.001 | inactive: -0.009 | inactive: -0.029 | inactive: -0.048 | inactive: -0.031 | inactive: 0.006 | inactive: 0.062 | inactive: -0.007 | inactive: -0.006 | inactive: -0.036 | inactive: 0.046

Exported comma-delimited: entries from further up
Row,Target,log2 fold change (alvocidib),log2 fold change (Tubastatin A),log2 fold change [1],log2 fold change (defactinib),log2 fold change [2],log2 fold change (encorafenib),log2 fold change [3],log2 fold change (alisertib),log2 fold change [4],log2 fold change (gefitinib),log2 fold change (lapatinib),log2 fold change (pictilisib),log2 fold change (crizotinib),log2 fold change [5],log2 fold change (duvelisib),log2 fold change (gandotinib),log2 fold change (tozasertib),log2 fold change (doramapimod),log2 fold change (bafetinib),log2 fold change [6]
11,RBM4 (UniProt Q9BWF3),inactive: 0.16,inactive: -0.168,inactive: 0.013,inactive: -0.011,inactive: -0.088,inactive: 0.089,inactive: -0.066,inactive: 0.037,inactive: 0.006,inactive: -0.004,inactive: -0.015,inactive: -0.01,inactive: 0.018,inactive: 0.183,inactive: -0.003,inactive: -0.097,inactive: 0.075,inactive: -0.109,inactive: -0.02,inactive: -0.069
12,REV1 (UniProt Q9UBZ9),inactive: 0.122,inactive: -0.061,inactive: -0.021,inactive: -0.001,inactive: -0.147,inactive: -0.094,inactive: -0.044,inactive: 0.05,inactive: -0.061,inactive: -0.01,inactive: -0.05,inactive: 0.001,inactive: 0.108,inactive: 0.05,inactive: -0.043,inactive: -0.133,inactive: -0.023,inactive: 0.003,inactive: 0.04,inactive: -0.165

Reference: the supplement of paper PMC10849652
